Reference: paper PMC7758625
Results are given in words; binding and its absence hold for the method and conditions named. Some results given as binding are weak or reduced against the parent protein; the word gives no strength.

T1: Mdh3 (peroxisomal iso-enzyme of Mdh2) (S. cerevisiae) (UniProt P32419)
T1 sequence: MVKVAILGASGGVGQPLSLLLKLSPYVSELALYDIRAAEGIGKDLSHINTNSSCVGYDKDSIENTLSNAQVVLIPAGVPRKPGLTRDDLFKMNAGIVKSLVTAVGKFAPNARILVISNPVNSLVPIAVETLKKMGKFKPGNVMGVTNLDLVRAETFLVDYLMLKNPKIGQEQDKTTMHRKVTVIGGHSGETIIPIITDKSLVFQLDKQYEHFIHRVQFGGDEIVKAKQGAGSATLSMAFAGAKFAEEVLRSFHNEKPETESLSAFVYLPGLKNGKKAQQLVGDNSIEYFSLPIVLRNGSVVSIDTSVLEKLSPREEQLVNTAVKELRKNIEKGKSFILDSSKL

T2: Pex5 (S. cerevisiae) (UniProt P35056)
T2 sequence: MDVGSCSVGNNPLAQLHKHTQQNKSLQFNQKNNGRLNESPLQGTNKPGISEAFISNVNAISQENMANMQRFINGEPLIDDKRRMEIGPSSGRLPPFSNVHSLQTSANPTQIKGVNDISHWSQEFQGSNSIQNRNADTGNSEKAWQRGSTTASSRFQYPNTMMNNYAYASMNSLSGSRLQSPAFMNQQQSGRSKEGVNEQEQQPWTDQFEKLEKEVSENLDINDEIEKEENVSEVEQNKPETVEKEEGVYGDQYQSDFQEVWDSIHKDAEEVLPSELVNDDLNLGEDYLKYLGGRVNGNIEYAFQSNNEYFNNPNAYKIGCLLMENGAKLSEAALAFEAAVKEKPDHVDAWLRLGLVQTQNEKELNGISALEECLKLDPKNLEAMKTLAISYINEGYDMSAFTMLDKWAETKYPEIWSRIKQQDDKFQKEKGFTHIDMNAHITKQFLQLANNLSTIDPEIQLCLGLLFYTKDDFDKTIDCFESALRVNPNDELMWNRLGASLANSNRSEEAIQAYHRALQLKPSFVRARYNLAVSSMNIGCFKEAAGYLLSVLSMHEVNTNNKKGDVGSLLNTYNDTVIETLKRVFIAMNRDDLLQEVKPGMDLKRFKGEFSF

B1: malate dehydrogenase 2 (Mdh2) (enzyme, UniProt P22133 1-377)
chain: MPHSVTPSIEQDSLKIAILGAAGGIGQSLSLLLKAQLQYQLKESNRSVTHIHLALYDVNQEAINGVTADLSHIDTPISVSSHSPAGGIENCLHNASIVVIPAGVPRKPGMTRDDLFNVNAGIISQLGDSIAECCDLSKVFVLVISNPVNSLVPVMVSNILKNHPQSRNSGIERRIMGVTKLDIVRASTFLREINIESGLTPRVNSMPDVPVIGGHSGETIIPLFSQSNFLSRLNEDQLKYLIHRVQYGGDEVVKAKNGKGSATLSMAHAGYKCVVQFVSLLLGNIEQIHGTYYVPLKDANNFPIAPGADQLLPLVDGADYFAIPLTITTKGVSYVDYDIVNRMNDMERNQMLPICVSQLKKNIDKGLEFVASRSASS
B2: Mdh3 (peroxisomal iso-enzyme of Mdh2) (enzyme, UniProt P32419 1-343)
chain: T1 sequence

Assays:
[1] = target: T1, Mdh3 (peroxisomal iso-enzyme of Mdh2) (S. cerevisiae); experiment: two-hybrid; S. cerevisiae PJ69-4A co-transformed with pPC86 (Gal4 activation domain) and pPC97 (Gal4 binding domain) plasmids in different combinations; three clones each replicated on 2% Glu-YNB -Leu -Trp -His + 5 mM 3-AT, 3-6 d; n=3
Pex5 (S. cerevisiae) = target: T2, Pex5 (S. cerevisiae); experiment: as above

Binder | binding [1] | binding (Pex5 (S. cerevisiae))
B1 | binds | no binding
B2 | – | binds
